Experiments:
[1] = test system: UMP; assay: Base-pairing by IR spectra of 1:1 nucleotide mixtures in D2O, with UMP; settings: shift to higher frequencies, 1500-1800 cm^−1, 20 mM, 0.1 M NaCl
[2] = test system: CMP; assay: Base-pairing by IR spectra of 1:1 nucleotide mixtures in D2O, with CMP

| Compound | IR shift of the 1:1 mixture with U vs calculated sum of spectra [1] | IR shift of the mixture with CMP vs calculated sum of spectra ([2]; shift to lower frequencies, 20 mM, 0.1 M NaCl) | IR spectrum of the 1:1 mixture with C vs calculated sum ([2]; 1500-1800 cm^−1) |
| --- | --- | --- | --- |
| Nc1nc2nccn2c2c1ncn2C1OC(COP(=O)(O)O)C(O)C1O (stereo not shown) [30a′] | 6 cm⁻¹ | 7 cm⁻¹ | – |
| Nc1ncnc2c1ncn2[C@@H]1O[C@H](COP(=O)(O)O)[C@@H](O)[C@H]1O [A, reference compound] | 7 cm⁻¹ | – | identical to the calculated sum |

Reference: US7385051B2, “Fluorescent N2,N3-etheno-purine (2′-deoxy) riboside derivatives and uses thereof” (Bar-llan University, priority 2005, dated 2008)
